{"source": "patent US10729659B2", "about": "“Nanogel-mediated drug delivery” (The Cleveland Clinic Foundation, priority 2012, dated 2020)", "key": {"MDA MB-231": {"tested_on": "MDA MB-231", "assay": "Sequential treatment, cell viability by MTS assay", "assay_type": "cell-based", "conditions": "Homo sapiens, dox alone, read-out: IC50 (Dox ng/mL)", "protocol": "(§1) The efficacy of sequential treatment was tested in the following human breast cancer cell lines: MCF-7/Adr (drug resistant), MCF-7, MDAMB 231 and BT-459. Cells were seeded at 3000 cells per well/0.1 mL in 96-well plates (Microtest Becton Dickinson Labware, Franklin Lakes, N.J.). 24 h post seeding, cells were pretreated with DAC solution/nanogel for 24 h or 48 h and washed with 1×-DPBS. 0.1 mL of media containing dox solution or nanogel was added and incubated in CO2 incubator for 48 h. Cell viability was determined at the end of incubation period using a standard MTS assay (CellTiter 96 Aqueous, Promega, Madison, Wis.). To each well was added 20 μL of reagent, the plates were incubated for 2 h at 37° C. in cell culture incubator, and color intensity was measured at 490 nm using a micro plate reader (Bio-Tek Instrument, Winooski, Vt.). The effect of drug on cell proliferation was calculated as percentage growth of cells with respect to their respective controls. […]\n(§2) The interaction between DAC and dox was analyzed using the Calcusyn software program (Biosoft, Ferguson, Mo.) to determine whether the simultaneous/sequential treatment was additive or synergistic.\n(§3) Data from cell viability assay (MTS) was expressed as the fraction of cells killed by individual drugs or by their combination in drug-treated compared with untreated cells. […]"}, "MCF-7": {"tested_on": "MCF-7", "assay": "Sequential treatment, cell viability by MTS assay", "assay_type": "cell-based", "conditions": "Homo sapiens, MCF7, dox alone, read-out: IC50 (Dox ng/mL)", "protocol": "as §1, §2, §3"}}, "data": [{"smiles": "COc1cccc2c1C(=O)c1c(O)c3c(c(O)c1C2=O)C[C@@](O)(C(=O)CO)C[C@@H]3O[C@H]1C[C@H](N)[C@H](O)[C@H](C)O1", "note": "[Dox, doxorubicin]", "values": [{"measurement": "IC50", "setting": "MDA MB-231", "result": "19.3 ± 1.9", "unit": "ng/mL"}, {"measurement": "IC50", "setting": "MCF-7", "result": "20.7 ± 0.8", "unit": "ng/mL"}]}]}
